Experimental data: PubChem BioAssay AID686938 (Drosophila RNAi Screening Center, 2013)

Assay: 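Fly genes required for calcium entry once internal stores are emptied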 (primary screen)
System: Drosophila S2R+ cells
Reagents: long dsRNA against Drosophila genes, about 0.25 µg dsRNA per well, roughly 10,000 cells
Duration: 5 days of knock-down before the calcium assay
Challenge: thapsigargin (SERCA pump blocker) to empty calcium stores; entry signal taken 4 min after adding it
Measured: 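Duplicate raw fluo-4 intensities per well from a plate reader, at rest and four minutes after thapsigargin emptied calcium stores; entry-to-rest ratio filled for only some wells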
Reading the numbers: calcium entry signal: higher = stronger calcium signal after store depletion; resting calcium signal: higher = higher resting calcium signal
Units: calcium entry signal in fluorescence units; resting calcium signal in fluorescence units
Rule for the call: 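Called when the plate z-score of the entry-to-rest ratio, mean of duplicates, falls below −3; wells with low overall dye signal (Fmax z below −2) or more than five off-targets excluded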
Meaning of the calls: active = strongly reduced calcium entry; inactive = no strong reduction
In all, the deposit lists about 23,000 reagents; this is an unselected part of those with a known target gene and a result. Over the whole deposit, 75 (0.33%) got an active call. 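Raw plate signals without normalisation; calls rest on plate z-scores that were not deposited; ratio present for only 364 wells.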 No sequences are given here. Not given: the dose of the treatment.

What did the screen give for CG6454 [DRSC16044]?
calcium entry signal, replicate 1: 3.91e7; calcium entry signal, replicate 2: 2.71e7; resting calcium signal, replicate 1: 1.85e7; resting calcium signal, replicate 2: 1.39e7; activity call: inactive

What did the screen give for CG4970 [DRSC02796]?
calcium entry signal, replicate 1: 4.05e7; calcium entry signal, replicate 2: 4.94e7; resting calcium signal, replicate 1: 1.98e7; resting calcium signal, replicate 2: 2.08e7; activity call: inactive

How did the screen score Rrp40 (Ribosomal RNA processing 40) [DRSC00074]?
calcium entry signal, replicate 1: 3.32e7; calcium entry signal, replicate 2: 3.50e7; resting calcium signal, replicate 1: 1.93e7; resting calcium signal, replicate 2: 1.75e7; activity call: inactive

For CG15673 [DRSC04263], how do the results read?
calcium entry signal, replicate 1: 5.40e7; calcium entry signal, replicate 2: 5.20e7; resting calcium signal, replicate 1: 2.70e7; resting calcium signal, replicate 2: 2.21e7; activity call: inactive

For CG31223 [DRSC15115], what was measured?
calcium entry signal, replicate 1: 3.34e7; calcium entry signal, replicate 2: 3.25e7; resting calcium signal, replicate 1: 1.55e7; resting calcium signal, replicate 2: 1.41e7; activity call: inactive

With beat-IIIa (beaten path IIIa) [DRSC01575], what was measured?
calcium entry signal, replicate 1: 2.87e7; calcium entry signal, replicate 2: 4.44e7; resting calcium signal, replicate 1: 1.62e7; resting calcium signal, replicate 2: 2.00e7; activity call: inactive

For beat-IIIa (beaten path IIIa) [DRSC01577], what was measured?
calcium entry signal, replicate 1: 3.27e7; calcium entry signal, replicate 2: 3.79e7; resting calcium signal, replicate 1: 1.85e7; resting calcium signal, replicate 2: 1.80e7; activity call: inactive

For beat-IIIa (beaten path IIIa) [DRSC02178], what does the deposit list?
calcium entry signal, replicate 1: 3.68e7; calcium entry signal, replicate 2: 2.31e7; resting calcium signal, replicate 1: 1.71e7; resting calcium signal, replicate 2: 1.13e7; activity call: inactive

Which result is listed for chn (charlatan) [DRSC06086]?
calcium entry signal, replicate 1: 3.81e7; calcium entry signal, replicate 2: 3.00e7; resting calcium signal, replicate 1: 1.79e7; resting calcium signal, replicate 2: 1.46e7; activity call: inactive

Which result is listed for CG31145 [DRSC13634]?
calcium entry signal, replicate 1: 3.36e7; calcium entry signal, replicate 2: 3.70e7; resting calcium signal, replicate 1: 1.66e7; resting calcium signal, replicate 2: 1.78e7; activity call: inactive

With CG31145 [DRSC14206], what does the deposit list?
calcium entry signal, replicate 1: 2.62e7; calcium entry signal, replicate 2: 3.53e7; resting calcium signal, replicate 1: 1.30e7; resting calcium signal, replicate 2: 1.51e7; activity call: inactive

With CG31145 [DRSC14670], what was measured?
calcium entry signal, replicate 1: 2.23e7; calcium entry signal, replicate 2: 3.07e7; resting calcium signal, replicate 1: 1.33e7; resting calcium signal, replicate 2: 1.38e7; activity call: inactive

With CG31145 [DRSC14671], what was measured?
calcium entry signal, replicate 1: 3.04e7; calcium entry signal, replicate 2: 3.42e7; resting calcium signal, replicate 1: 1.42e7; resting calcium signal, replicate 2: 1.40e7; activity call: inactive

What did the screen give for l(3)L1231 (lethal (3) L1231) [DRSC16323]?
calcium entry signal, replicate 1: 2.70e7; calcium entry signal, replicate 2: 4.22e7; resting calcium signal, replicate 1: 1.34e7; resting calcium signal, replicate 2: 1.77e7; activity call: inactive

Targets above whose gene name starts with B or b (3):
beat-IIIa (beaten path IIIa) [DRSC01575] — calcium entry signal, replicate 1: 2.87e7; calcium entry signal, replicate 2: 4.44e7; resting calcium signal, replicate 1: 1.62e7; resting calcium signal, replicate 2: 2.00e7; activity call: inactive
beat-IIIa (beaten path IIIa) [DRSC01577] — calcium entry signal, replicate 1: 3.27e7; calcium entry signal, replicate 2: 3.79e7; resting calcium signal, replicate 1: 1.85e7; resting calcium signal, replicate 2: 1.80e7; activity call: inactive
beat-IIIa (beaten path IIIa) [DRSC02178] — calcium entry signal, replicate 1: 3.68e7; calcium entry signal, replicate 2: 2.31e7; resting calcium signal, replicate 1: 1.71e7; resting calcium signal, replicate 2: 1.13e7; activity call: inactive
